Experiment: Histamine and N.tau.-methylhistamine contents in rat hypothalamus
Details: 1.5±0.3 mg tissue, five repetitions

Compound	Mean content of the median eminence (± SD) [pmol/g tissue]
NCCc1c[nH]cn1 [histamine]	3.7±1.0
Cn1cnc(CCN)c1 [N.tau.-methylhistamine]	1.5±0.4

Source: US4908322A, “Derivatization of amines for electrochemical detection” (The United States of America as represented by the …, priority 1988, dated 1990)
